Laboratory results: the supplement of paper PMC12259267, “Disruption of the KLHL37–N-Myc complex restores N-Myc degradation and arrests neuroblastoma growth in mouse models” (The Journal of Clinical Investigation, 2025)
Counter-ions that a name gives are not always drawn. This is one part of the list. Most values come without repeats; read them as rough.

Test system: SK-N-BE(2)
Assay: inhibition of N-Myc immunofluorescence signal per cell relative to control (fraction); higher = stronger N-Myc protein reduction
Settings: 1 µM; 9 h

Compound: CC(C)C[C@H](NC(=O)C(C)(C)NC(=O)c1ccccc1C(F)(F)F)B(O)O
- inhibition of N-Myc immunofluorescence signal per cell: 0.152

Compound: CCOc1cccc(F)c1C#Cc1cn([C@@H]2O[C@H](CNS(N)(=O)=O)[C@@H](O)[C@H]2O)c2ncnc(N)c12 [TAS4464 (hydrochloride)]
- inhibition of N-Myc immunofluorescence signal per cell: -0.335

Compound: O=C(CCl)Nc1cccc(NC2=NS(=O)(=O)c3ccccc32)c1
- inhibition of N-Myc immunofluorescence signal per cell: -0.122

Compound: CCCCCC/C=C\CCCCCCCc1cccc(O)c1C(=O)O [Ginkgolic Acid]
- inhibition of N-Myc immunofluorescence signal per cell: 0.221

Compound: O=C1CC[C@H](N2Cc3c(OCc4ccc(CN5CCOCC5)cc4)cccc3C2=O)C(=O)N1 [Iberdomide]
- inhibition of N-Myc immunofluorescence signal per cell: 0.168

Compound: OCCNCc1cc(Br)ccc1OCc1ccc(F)c(C(F)(F)F)c1 [USP25/28 inhibitor AZ1]
- inhibition of N-Myc immunofluorescence signal per cell: 0.102

Compound: CCN(CC)Cc1ccc2cc(COC(=O)Nc3ccc(C(=O)NO)cc3)ccc2c1 [Givinostat (hydrochloride monohydrate)]
- inhibition of N-Myc immunofluorescence signal per cell: -0.136

Compound: Cc1cc(C)c(CNC(=O)c2cc(-c3ccc(CN4CCOCC4)cc3)cc3c2cnn3C2CCCC2)c(=O)[nH]1
- inhibition of N-Myc immunofluorescence signal per cell: -0.0544

Compound: O=C1c2ccccc2C(=O)c2oc(-c3cccnc3)nc21
- inhibition of N-Myc immunofluorescence signal per cell: 0.256

Compound: CCCC(CCC)C(=O)O [Valproic acid]
- inhibition of N-Myc immunofluorescence signal per cell: -0.11

Compound: CC(C)(CNC(=O)c1cccc(-c2noc(C(F)(F)F)n2)c1)c1coc(-c2ccccc2)n1
- inhibition of N-Myc immunofluorescence signal per cell: 0.0444

Compound: Cn1cc(-c2ccc(S(=O)(=O)n3ccc(/C=C/C(=O)Nc4ccccc4N)c3)cc2)cn1 [Domatinostat]
- inhibition of N-Myc immunofluorescence signal per cell: 0.292

Compound: CN(CCCNC(=O)c1ccc2nc3c(c(Cl)c2c1)CCCC3)Cc1ccccc1
- inhibition of N-Myc immunofluorescence signal per cell: 0.23

Compound: O=C1/C(=C/c2cccs2)CC/C1=C\c1cccs1
- inhibition of N-Myc immunofluorescence signal per cell: -0.0426

Compound: N#CN1CC[C@H](C(=O)Nc2ncc(N3CCOCC3)s2)C1
- inhibition of N-Myc immunofluorescence signal per cell: -0.0411

Compound: CCCc1cc(C)[nH]c(=O)c1CNC(=O)c1cc(-c2ccc(N3CCN(C(C)C)CC3)nc2)cc2c1cnn2C(C)C
- inhibition of N-Myc immunofluorescence signal per cell: 0.0846

Compound: O=C1/C(=C/c2ccc([N+](=O)[O-])cc2)CNC/C1=C\c1ccc([N+](=O)[O-])cc1
- inhibition of N-Myc immunofluorescence signal per cell: 0.394

Compound: O=C(C[C@@H](C(F)F)n1ccc(F)n1)N1CCC(O)(Cn2cnc3c(cnn3-c3ccc(F)cc3)c2=O)CC1
- inhibition of N-Myc immunofluorescence signal per cell: -0.189

Compound: O=C(O)CNC(=O)C1=C(O)CCN(Cc2ccc(Oc3ccc(Cl)cc3)nc2)C1=O
- inhibition of N-Myc immunofluorescence signal per cell: 0.192

Compound: O=C(O)/C(S)=C/c1ccc(I)cc1
- inhibition of N-Myc immunofluorescence signal per cell: 0.246

Compound: Cc1ncsc1-c1ccc(CNC(=O)[C@@H]2C[C@@H](O)CN2C(=O)[C@@H](NC(=O)C2(C#N)CC2)C(C)(C)C)cc1
- inhibition of N-Myc immunofluorescence signal per cell: -0.214

Compound: Nc1cc(F)ccc1NC(=O)c1ccc(CNC(=O)/C=C/c2cccnc2)cc1 [Tucidinostat]
- inhibition of N-Myc immunofluorescence signal per cell: -0.0231

Compound: N#C/C(=C\c1ccc(-c2cc(Cl)ccc2Cl)o1)C(=O)Nc1cccc2ncccc12
- inhibition of N-Myc immunofluorescence signal per cell: -0.0176

Compound: COc1ccc(CNC(=O)CCl)cc1OC
- inhibition of N-Myc immunofluorescence signal per cell: 0.136

Compound: COc1cc2nc(N3CCCC3)nc(NCCCCCN3CCCC3)c2cc1OC
- inhibition of N-Myc immunofluorescence signal per cell: -0.286

Compound: CCCCc1nc2cc(/C=C/C(=O)NO)ccc2n1CCN(CC)CC [Pracinostat]
- inhibition of N-Myc immunofluorescence signal per cell: -0.126

Compound: COC(=O)C1=C(C(=O)OC)[C@@]2([C@@H](Cc3ccc(C)cc3)Nc3ccccc3)C=C[C@@H]1O2
- inhibition of N-Myc immunofluorescence signal per cell: -0.0938

Compound: Cc1ccc(/C=C2\SC(=S)N(CCCCCC(=O)Nc3ccc(C(=O)O)c(O)c3)C2=O)cc1
- inhibition of N-Myc immunofluorescence signal per cell: -0.0132

Compound: c1ccc2c(CCNc3ccc(Nc4ccncc4)cc3)c[nH]c2c1 [Serdemetan]
- inhibition of N-Myc immunofluorescence signal per cell: -0.0116

Compound: O=C(CCCCCCC(=O)NO)NO [Suberoyl bis-hydroxamic acid]
- inhibition of N-Myc immunofluorescence signal per cell: 0.0966

Compound: Nc1cccc2nnn(C3CCC(=O)NC3=O)c(=O)c12 (stereo not given)
- inhibition of N-Myc immunofluorescence signal per cell: 0.186

Compound: Cn1cc(/C=C/C(=O)c2cccc(F)c2)cc1/C=C/C(=O)NO
- inhibition of N-Myc immunofluorescence signal per cell: 0.0357

Compound: O=C1CCC(N2Cc3cc(CNC(=O)C(F)(F)c4ccc(Cl)cc4)ccc3C2=O)C(=O)N1 (stereo not given) [Cereblon modulator 1]
- inhibition of N-Myc immunofluorescence signal per cell: -0.0887

Compound: O=C(O)COc1ccc(Br)cc1/C=C1\SC(=S)N(Cc2cccnc2)C1=O [Skp2 Inhibitor C1]
- inhibition of N-Myc immunofluorescence signal per cell: 0.267

Compound: CCOC(=O)c1ccc(OC(=O)CCCCCNC(=N)N)cc1 [Gabexate (mesylate)]
- inhibition of N-Myc immunofluorescence signal per cell: 0.0326
